Experimental data from PMC12590881.

Sequences of proteins named here, by UniProt entry; tags and fusion partners are left off.
UniProt O60260: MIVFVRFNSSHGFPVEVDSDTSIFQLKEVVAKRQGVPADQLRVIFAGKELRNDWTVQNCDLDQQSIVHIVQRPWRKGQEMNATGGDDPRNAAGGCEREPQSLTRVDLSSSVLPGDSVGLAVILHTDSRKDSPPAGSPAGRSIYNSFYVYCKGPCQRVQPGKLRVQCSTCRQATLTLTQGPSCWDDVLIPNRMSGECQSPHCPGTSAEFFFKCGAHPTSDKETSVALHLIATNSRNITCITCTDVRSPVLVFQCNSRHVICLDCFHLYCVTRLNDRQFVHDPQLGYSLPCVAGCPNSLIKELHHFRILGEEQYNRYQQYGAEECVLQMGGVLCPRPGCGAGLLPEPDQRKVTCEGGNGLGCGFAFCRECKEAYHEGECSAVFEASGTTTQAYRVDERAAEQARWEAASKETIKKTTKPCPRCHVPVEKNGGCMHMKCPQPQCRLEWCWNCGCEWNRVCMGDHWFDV

Columns and labels:
PHB2-APEX2-FLAG (human) [1] = biological target: PHB2-APEX2-FLAG (human) (UniProt Q99623); experiment: condition: only DMSO (basal conditions, without OA); proximity labelling; as a1, the DMSO-treated (basal) sample alone; streptavidin-purified biotinylated proteins, Western blot
PHB2-APEX2-FLAG (human) [2] = biological target: PHB2-APEX2-FLAG (human) (UniProt Q99623); experiment: proximity labelling; APEX2 labelling in HeLa Parkin/PHB2-APEX2 cells, DMSO against OA 4 h; streptavidin-purified biotinylated proteins; label-free proteomic analysis (mass spectrometry)
PHB2-APEX2-FLAG (human) [3] = biological target: PHB2-APEX2-FLAG (human) (UniProt Q99623); experiment: proximity labelling; APEX2 labelling in HeLa Parkin/PHB2-APEX2 cells treated with DMSO or OA (oligomycin 2.5 uM + antimycin A 250 nM) for 4 h; biotin-phenol 0.5 mM 30 min, H2O2 0.5 mM 1 min; lysis in RIPA; biotinylated proteins purified on streptavidin magnetic beads; Western blot

## Parkin (from UniProt O60260 1-465)
PHB2-APEX2-FLAG (human) [1]
  binding: no binding
PHB2-APEX2-FLAG (human) [2]
  binding: binds
PHB2-APEX2-FLAG (human) [3]
  binding: binds

## p62/SQSTM1 (from UniProt Q13501 1-440)
PHB2-APEX2-FLAG (human) [3]
  binding: binds

These are yes or no findings as the source states them, for the method shown. In cells and extracts the contact can be indirect. These calls come from enrichment with a bait or labelling near it, and not all partners need be listed. For some of these results: No binding means not detected with the bait.
